This list was built around the results that the source calls inconclusive (neither active nor inactive); the mix of calls is not that of the screen. Potencies of inconclusive entries are doubtful fits and often do not repeat. Activity calls are given as the source filed them. Calls come from the whole dose curve; as a rule, active = well fitted cell-killing curve with a large enough effect; inconclusive = small, poorly fitted or top-dose-only effect, or effect the other way; inactive = flat fitted curve, though single readings scatter.
Assay: Compound cytotoxicity measured by an ATP content assay as a counter-screen for lead compounds in human astrocytes
Settings: human astrocytes viability, ATP luminescence; series mostly up to 46.1 µM
Experimental: National Center for Advancing Translational Sciences [NCATS] Johns Hopkins University School of Medicine Florida State University Assay Overview: Many compounds can cause cytotoxicity at high compound concentrations. […] The compound cytotoxicity may also cause side effects or toxicity in human. Thus, the compound cytotoxicity needs to be measured in each cell type and each compound incubation time - same as these in the compound screening assay. The compound cytotoxicity can be measured by cell viability assays such as the ATP content assay. We use an ATP content assay kit for cell viability measurement. It measures ATP content (level) in human astrocytes using a luminescence readout that is proportional to viable cell numbers. Decrease in the luminescence signal after the compound treatment indicates reduced cell viability and cell death caused by compound treatment.
Assay Protocol Summary: The medium for astrocytes contains AM basal medium (ScienCell, Cat.# 1801), AGS (ScienCell, Cat.# 1801), 10% FBS, and 1% Pen/Strep. The ATP content assay kit (PerkinElmer, Cat.# 6016731) was used to determine cell viability. The reagent was reconstituted and prepared as described by the manufacturer. Cells were seeded in 384- or 1536-well assay plates and cultured at 37 C with 5% CO2 for 16 to 20 hours. The typical cell seeding density in the 1536-well plate assay is 350 cells/well in 3 ul medium for astrocytes in the tissue cultured treated/PDL coated plates. Compounds were added to cells and incubated for a specific time such as 6, 24, or 72 hours before addition of the reagent mixture of the ATP content assay kit at 1:1 ratio. After incubation at room temperature for 10 minutes, the luminescence intensity in assay plates was measured using a ViewLux plate reader (PerkinElmer). […] The percentage inhibitions of the decreased cell viability by small molecules were then calculated that indicate compound cytotoxicity.

Compound | Potency
Nc1ccc(N=Nc2ccccc2)c(N)n1 | inactive
CC(=Cc1ccccc1)C=C1SC(=S)N(CC(=O)O)C1=O | inconclusive: 21.8 µM [cytotoxic, partial curve]
COc1ccc(-c2cc(=O)c3c(O)cc(O)cc3o2)cc1O | inactive
COc1cccc(-c2cc(=O)c3ccccc3o2)c1N | inconclusive: 10.9 µM [cytotoxic, partial curve]
Nc1ccc(-c2ccc3ccccc3n2)cc1 | inconclusive: 17.3 µM [cytotoxic, partial curve]
CC(=O)OC(C)OC(=O)C(C)c1ccc(-c2ccccc2)c(F)c1 (stereo not given) | inactive
C/C(=N\O)c1ccc(OCC(=O)N2CCCCC2)cc1 | inconclusive: 12.3 µM [cytotoxic, partial curve, poor fit]
COc1cc2nc(N3CCN(C(=O)C4CCCO4)CC3)nc(N)c2cc1OC (stereo not given) | inactive
CC(O)=C(C#N)C(=O)Nc1ccc(C(F)(F)F)cc1 | active: 6.9 µM
COc1cccc(-c2ccc(NC(=O)C3=C(C(=O)O)CCC3)c(F)c2)c1 | inconclusive: 10.9 µM [cytotoxic, partial curve]
COc1ccc(NC(=O)/C=C/c2ccc(Cl)cc2)cc1 | inconclusive: 12.3 µM [cytotoxic, partial curve]
CCCC(=O)OC[C@@H](OC(=O)CCC)[C@@H](OC(=O)CCC)[C@H](Cn1c2nc(=O)[nH]c(=O)c-2nc2cc(C)c(C)cc21)OC(=O)CCC | inactive
CC(=O)Nc1ccc([C@H](C)C(=O)Nc2ncc(C(C)C)s2)cc1 | inconclusive: 21.8 µM [rising, single point]
CC1(C)OC2=C(C(=O)c3ccccc3C2=O)[C@H](NCc2ccccc2)[C@H]1O | active: 8.91 µM
CNC(=O)c1ccccc1Sc1ccc2c(/C=C/c3ccccn3)n[nH]c2c1 | inconclusive: 13.8 µM [cytotoxic, partial curve]
O=C(Nc1ccc(OC(F)(F)F)cc1)c1sccc1NCc1ccnc2ccccc12 | inconclusive: 19.5 µM [cytotoxic, single point]
O=c1c(-c2ccc(O)cc2)coc2cc(O)ccc12 | inconclusive: 27.5 µM [cytotoxic, single point]
CNC1[C@H](O)C(O[C@@H]2C(O)C(O[C@H]3O[C@H]([C@@H](C)NC)CC[C@H]3N)[C@@H](N)C[C@H]2N)OC[C@]1(C)O (stereo not given in full) | inactive
CC(C)Oc1ccc2c(=O)c(-c3ccccc3)coc2c1 | inconclusive: 24.5 µM [cytotoxic, partial curve, poor fit]
NC1CCC(Nc2nc(Nc3ccc(C(=O)N4CCCCC4)cc3)c3ncn(-c4cccc(F)c4)c3n2)CC1 (stereo not given) | inconclusive: 30.8 µM [cytotoxic, single point]

Grouped by structure, the entries above with a COOH group (2)
Compound | Potency
CC(=Cc1ccccc1)C=C1SC(=S)N(CC(=O)O)C1=O | inconclusive: 21.8 µM [cytotoxic, partial curve]
COc1cccc(-c2ccc(NC(=O)C3=C(C(=O)O)CCC3)c(F)c2)c1 | inconclusive: 10.9 µM [cytotoxic, partial curve]

Next part.

Compound | Potency
Cc1cc(O)c2ccccc2c1O | active: 8.69 µM
O=c1[nH]nc(Sc2ncc([N+](=O)[O-])s2)n1-c1ccc2c(c1)OCCO2 | active: 1.23 µM
CC(=NNC(=S)N1CCC1)c1ccccn1 | active: 17.3 µM
Cc1ccc2c(n1)Oc1ccc(C(C)C(=O)OCC(=O)N(C)C)cc1C2 (stereo not given) | inconclusive: 15.5 µM [cytotoxic, partial curve]
COc1ccc(C=CC(=O)Nc2ccccc2C(=O)O)cc1OC | inconclusive: 19.5 µM [cytotoxic, partial curve]
C[C@@H](N)c1ccc(C(=O)Nc2ccnc3[nH]ccc23)cc1 | inactive
Cc1c(C(=O)O)c(O)cc2c1C(=O)c1c(O)c([C@@H]3O[C@H](CO)[C@@H](O)[C@H](O)[C@H]3O)c(O)c(O)c1C2=O | inconclusive: 19.5 µM [cytotoxic, single point]
Cc1nc(-c2ccc(OCC(C)C)c(C#N)c2)sc1C(=O)O | inconclusive: 21.8 µM [cytotoxic, partial curve]
O=C(OCc1ccccc1)c1ccc(O)cc1 | inconclusive: 17.3 µM [cytotoxic, single point]
O=C(O)c1cc([N+](=O)[O-])ccc1NCCCc1ccccc1 | inactive
C[C@H](NC(=O)C(=O)Nc1ccccc1C(C)(C)C)C(=O)N[C@@H](CC(=O)O)C(=O)COc1c(F)c(F)cc(F)c1F | inactive
O=C(O)c1cccc(-c2noc(-c3ccccc3F)n2)c1 | active: 5.48 µM
CC(C)(C)OC(=O)CN(Cc1ccc(Cl)cc1)Cc1ccc([N+](=O)[O-])s1 | inactive
CCN(CC)c1ccc(C(=C2C=CC(=[N+](CC)CC)C=C2)c2cc(S(=O)(=O)O)ccc2S(=O)(=O)[O-])cc1 | inconclusive: 8.69 µM [cytotoxic, partial curve]
C=C1C(=O)[C@@]23C(CC[C@@H]1[C@H]2O)[C@@]12CO[C@]3(O)[C@@H](O)[C@@H]1C(C)(C)CC[C@@H]2O (stereo not given in full) | inconclusive: 27.5 µM [cytotoxic, single point]
CCCSc1ccc2nc(NC(=O)OC)[nH]c2c1 | inconclusive: 15.5 µM [cytotoxic, partial curve, poor fit]
CN(C)c1ccc(/C=C2\C(=O)Nc3ccccc32)cc1 | inconclusive: 15.5 µM [cytotoxic, partial curve]
Nc1cc(C(F)(F)F)ccc1S | inactive
CCCCCCCC/C=C/C(=O)O | inactive
Cc1ccc(O)c(N=Nc2ccccc2)n1 | active: 4.35 µM
